Measurements: US20240307430A1, “PHARMACEUTICAL COMPOSITION CONTAINING NICOTINAMIDE ADENINE DINUCLEOTIDE (NAD) AND CD38 INHIBITOR AND APPLICATION THEREOF” (HEFEI KNATURE BIO-PHARM CO., LTD., priority 2021, published 2024)
At least one structure is not confirmed: it was looked up by name or label, or the drawing left a doubt.

How the values were obtained:
[1] = system: Doxorubicin-induced cardiotoxicity (DIC) model; assay: NAD+ content of cardiac tissues in the doxorubicin-induced cardiotoxicity (DIC) model; assay type: in vivo, C57BL/6 male mice; details: DOX-treated mice; i.p. once a day from 3 hours before doxorubicin; NAD 50 mg/kg, 78c 10 mg/kg; FIG. 2
Experimental: (§1) Circulation. 2016; 133:1668-1687”. 8-week-old C57BL/6 male mice were injected with 5 mg/kg of doxorubicin (DOX) or normal saline via the tail vein, and the administration was performed once a week for four consecutive weeks. Four weeks after the last administration, the mice were subjected to echocardiography to detect the cardiac function, and myocardial tissues of the mice were taken to detect the NAD^+ content. Mice were intraperitoneally injected with the same volume of saline as that of the experimental group once a day, and the duration cycle was the same as that of the DIC model. After administration, mice were subjected to echocardiography to detect the cardiac function, and myocardial tissues were taken from mice to detect NAD^+ content. CD38 inhibitor 78c was dissolved with DMSO. Mice were injected intraperitoneally with 10 mg/kg CD38 inhibitor 78c at 3 hours before doxorubicin injection in the DIC model. 78c was administered once a day until the endpoint of the DIC model. At the end of the model, echocardiography was performed on the mice to detect the cardiac function of the mice, and myocardial tissues were taken from the mice to detect NAD^+ content. NAD was dissolved in saline. Mice were injected intraperitoneally with 50 mg/kg NAD at 3 hours before doxorubicin injection in the DIC model. NAD was administered once a day, which lasted until the endpoint of the DIC model. […]

[2] = system: Doxorubicin-induced cardiotoxicity (DIC) model; assay: Echocardiography of cardiac function (EF, FS) in the DIC model; assay type: in vivo, C57BL/6 male mice; details: DOX-treated mice; i.p. once a day from 3 hours before doxorubicin; NAD 50 mg/kg, 78c 10 mg/kg; FIGS. 3a and 3b
Experimental: as §1

NC(=O)c1ccc[n+]([C@@H]2O[C@H](COP(=O)([O-])OP(=O)(O)OC[C@H]3O[C@@H](n4cnc5c(N)ncnc54)[C@H](O)[C@@H]3O)[C@@H](O)[C@H]2O)c1 [NAD, nicotinamide adenine dinucleotide]
cardiac NAD+ content [1]: modestly increased | cardiac function (EF, FS) [2]: improved cardiac function
